Protein sequences can lack the tags named with them.
Test system: T1, SigH (RpoE, ECF sigma factor) (Corynebacterium glutamicum RES167)
T1 sequence (looked up): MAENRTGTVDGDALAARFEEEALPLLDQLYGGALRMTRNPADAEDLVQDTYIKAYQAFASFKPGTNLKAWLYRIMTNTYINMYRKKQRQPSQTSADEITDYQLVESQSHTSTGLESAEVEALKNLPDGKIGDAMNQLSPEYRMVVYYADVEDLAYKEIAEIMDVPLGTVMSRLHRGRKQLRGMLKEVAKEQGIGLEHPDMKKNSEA
Assay: EMSA
Settings: 0-3.0 ug His6-SigH, 20 ng DNA, no core RNA polymerase listed; 20 mM Tris-HCl pH 7.4, 4 mM MgCl2, 100 mM NaCl, 1 mM DTT, 10% glycerol, 10 ul, 30 min room temperature; 6% native PAGE with 5% glycerol, 0.5x TBE; recombinant protein; residues 1-206; protein details: His6 (pET28a, N-terminal); label: none (SYBR Green detection); probe letters rebuilt from the primers and the genome

Q: Does “TCTAGAGCGTAGACCACTCACGTGTTTCATCCTTTCCTTGAAGCTTTATATGCTTCCGCAGGGTTTAGTTGATGTGTATTGCATTCATGATAGTCGTTTCCGCCGTCATACCTATTTACCCCTTGGATGACCTCGGTTAACAGTTTTTCCTGAGGTGACTAAGATGTATAGGTGACCAACTCGATTCGGCTTTGAAGAGGATGCAGACAGACTTCCATCATGAGTACAAATTCCAACTCTCCATCCAACGCATCAGGCGCTTCGAACATTCCAAACACCCAACGTCCGGCTAGCCGATACAATTCGCCTCGCCCGGAAGCTGCTGCAGGCAGGAACATCAGCGGAAAAATCATCGCAGTCATTGGCGTGCTGCTGGTGATCGCC (double strand) [Pmca (mca promoter, 400 bp)]” bind?
A: Result: binds
